Measured values taken from US12516015B2 (AMALIVE LIMITED, priority 2009, dated 2026).
Read-outs that look alike come from different tables or passages of the source.

Measured: Results (crystalline form of precipitate)

NCCC[C@H](N)C(=O)O.O=C(O)Cc1ccccc1 [L-ornithine phenyl acetate]
Form I/III: Test 578, Anti-Solvent (Hexane) Addition (4° C.), MeCN | Test 602, Anti-Solvent (Hexane) Addition (4° C.), THF
Form I/II: Test 462, Anti-Solvent (Ethanol) Addition (−21° C.), MeOH: 20% H20 | Test 473, Anti-Solvent (Ethanol) Addition (−21° C.), MeOH: 50% H20
Form I: Test 472, Anti-Solvent (Ethanol) Addition (4° C.), MeOH: 50% H20 | Test 548, Anti-Solvent (Hexane) Addition (4° C.), ethanol | Test 596, Anti-Solvent (Hexane) Addition (4° C.), Nitromethane | Test 599, Anti-Solvent (Hexane) Addition (4° C.), TBME
Form III: Test 545, Anti-Solvent (Hexane) Addition (4° C.), 1-butanol | Test 551, Anti-Solvent (Hexane) Addition (4° C.), acetone | Test 560, Anti-Solvent (Hexane) Addition (4° C.), DCM | Test 566, Anti-Solvent (Hexane) Addition (4° C.), EtOAc | Test 584, Anti-Solvent (Hexane) Addition (4° C.), MEK | Test 587, Anti-Solvent (Hexane) Addition (4° C.), MeOAc | Test 590, Anti-Solvent (Hexane) Addition (4° C.), MeOH | Test 608, Anti-Solvent (Hexane) Addition (4° C.), toluene | Test 611, Anti-Solvent (Hexane) Addition (4° C.), water
Form II: Test 445, Anti-Solvent (IPA) Addition Elevated Temperature, MeOH: 5% H20 | Test 446, Anti-Solvent (IPA) Addition Ambient Temperature, MeOH: 5% H20 | Test 447, Anti-Solvent (IPA) Addition (4° C.), MeOH: 5% H20 | Test 448, Anti-Solvent (IPA) Addition (−21° C.), MeOH: 5% H20 | Test 450, Anti-Solvent (Ethanol) Addition (4° C.), MeOH: 5% H20 | Test 451, Anti-Solvent (Ethanol) Addition (−21° C.), MeOH: 5% H20 | Test 456, Anti-Solvent (IPA) Addition Elevated Temperature, MeOH: 20% H20 | Test 457, Anti-Solvent (IPA) Addition Ambient Temperature, MeOH: 20% H20 | Test 458, Anti-Solvent (IPA) Addition (4° C.), MeOH: 20% H20 | Test 459, Anti-Solvent (IPA) Addition (−21° C.), MeOH: 20% H20 | Test 460, Anti-Solvent (Ethanol) Addition Ambient Temperature, MeOH: 20% H20 | Test 461, Anti-Solvent (Ethanol) Addition (4° C.), MeOH: 20% H20 | Test 467, Anti-Solvent (IPA) Addition Elevated Temperature, MeOH: 50% H20 | Test 469, Anti-Solvent (IPA) Addition (4° C.), MeOH: 50% H20 | Test 471, Anti-Solvent (Ethanol) Addition Ambient Temperature, MeOH: 50% H20 | Test 490, Anti-Solvent (IPA) Addition Ambient Temperature, THF: 3% H20 | Test 502, Anti-Solvent (IPA) Addition (4° C.), THF: 5% H20 | Test 534, Anti-Solvent (IPA) Addition Ambient Temperature, butan-1-ol: 5% H20 | Test 554, Anti-Solvent (Hexane) Addition (4° C.), benzonitrile
No Solid: Test 436, Anti-Solvent (IPA) Addition (4° C.), 1,4-dioxane: 10% H20 | Test 437, Anti-Solvent (IPA) Addition (−21° C.), 1,4-dioxane: 10% H20 | Test 438, Anti-Solvent (Ethanol) Addition Ambient Temperature, 1,4-dioxane: 10% H20 | Test 439, Anti-Solvent (Ethanol) Addition (4° C.), 1,4-dioxane: 10% H20 | Test 440, Anti-Solvent (Ethanol) Addition (−21° C.), 1,4-dioxane: 10% H20 | Test 449, Anti-Solvent (Ethanol) Addition Ambient Temperature, MeOH: 5% H20 | Test 468, Anti-Solvent (IPA) Addition Ambient Temperature, MeOH: 50% H20 | Test 470, Anti-Solvent (IPA) Addition (−21° C.), MeOH: 50% H20 | Test 478, Anti-Solvent (IPA) Addition Elevated Temperature, THF: 1% H20 | Test 479, Anti-Solvent (IPA) Addition Ambient Temperature, THF: 1% H20 | Test 480, Anti-Solvent (IPA) Addition (4° C.), THF: 1% H20 | Test 481, Anti-Solvent (IPA) Addition (−21° C.), THF: 1% H20 | Test 482, Anti-Solvent (Ethanol) Addition Ambient Temperature, THF: 1% H20 | Test 483, Anti-Solvent (Ethanol) Addition (4° C.), THF: 1% H20 | Test 484, Anti-Solvent (Ethanol) Addition (−21° C.), THF: 1% H20 | Test 489, Anti-Solvent (IPA) Addition Elevated Temperature, THF: 3% H20 | Test 491, Anti-Solvent (IPA) Addition (4° C.), THF: 3% H20 | Test 492, Anti-Solvent (IPA) Addition (−21° C.), THF: 3% H20 | Test 493, Anti-Solvent (Ethanol) Addition Ambient Temperature, THF: 3% H20 | Test 494, Anti-Solvent (Ethanol) Addition (4° C.), THF: 3% H20 | Test 495, Anti-Solvent (Ethanol) Addition (−21° C.), THF: 3% H20 | Test 500, Anti-Solvent (IPA) Addition Elevated Temperature, THF: 5% H20 | Test 501, Anti-Solvent (IPA) Addition Ambient Temperature, THF: 5% H20 | Test 503, Anti-Solvent (IPA) Addition (−21° C.), THF: 5% H20 | Test 504, Anti-Solvent (Ethanol) Addition Ambient Temperature, THF: 5% H20 | Test 505, Anti-Solvent (Ethanol) Addition (4° C.), THF: 5% H20 | Test 506, Anti-Solvent (Ethanol) Addition (−21° C.), THF: 5% H20 | Test 511, Anti-Solvent (IPA) Addition Elevated Temperature, butan-1-ol: 1% H20 | Test 512, Anti-Solvent (IPA) Addition Ambient Temperature, butan-1-ol: 1% H20 | Test 513, Anti-Solvent (IPA) Addition (4° C.), butan-1-ol: 1% H20 | Test 514, Anti-Solvent (IPA) Addition (−21° C.), butan-1-ol: 1% H20 | Test 515, Anti-Solvent (Ethanol) Addition Ambient Temperature, butan-1-ol: 1% H20 | Test 516, Anti-Solvent (Ethanol) Addition (4° C.), butan-1-ol: 1% H20 | Test 517, Anti-Solvent (Ethanol) Addition (−21° C.), butan-1-ol: 1% H20 | Test 522, Anti-Solvent (IPA) Addition Elevated Temperature, butan-1-ol: 3% H20 | Test 523, Anti-Solvent (IPA) Addition Ambient Temperature, butan-1-ol: 3% H20 | Test 524, Anti-Solvent (IPA) Addition (4° C.), butan-1-ol: 3% H20 | Test 525, Anti-Solvent (IPA) Addition (−21° C.), butan-1-ol: 3% H20 | Test 526, Anti-Solvent (Ethanol) Addition Ambient Temperature, butan-1-ol: 3% H20 | Test 527, Anti-Solvent (Ethanol) Addition (4° C.), butan-1-ol: 3% H20 | Test 528, Anti-Solvent (Ethanol) Addition (−21° C.), butan-1-ol: 3% H20 | Test 533, Anti-Solvent (IPA) Addition Elevated Temperature, butan-1-ol: 5% H20 | Test 535, Anti-Solvent (IPA) Addition (4° C.), butan-1-ol: 5% H20 | Test 536, Anti-Solvent (IPA) Addition (−21° C.), butan-1-ol: 5% H20 | Test 537, Anti-Solvent (Ethanol) Addition Ambient Temperature, butan-1-ol: 5% H20 | Test 538, Anti-Solvent (Ethanol) Addition (4° C.), butan-1-ol: 5% H20 | Test 539, Anti-Solvent (Ethanol) Addition (−21° C.), butan-1-ol: 5% H20 | Test 542, Anti-Solvent Addition, 1,4-dioxane | Test 557, Anti-Solvent (Hexane) Addition (4° C.), cyclohexane | Test 572, Anti-Solvent (Hexane) Addition (4° C.), IPA | Test 581, Anti-Solvent (Hexane) Addition (4° C.), MeCN: Water (1%) | Test 593, Anti-Solvent (Hexane) Addition (4° C.), MIBK | Test 605, Anti-Solvent (Hexane) Addition (4° C.), THF: water (1%)
No Solid/No: Test 563, Anti-Solvent (Hexane) Addition (4° C.), DMSO | Test 569, Anti-Solvent (Hexane) Addition (4° C.), Heptane | Test 575, Anti-Solvent (Hexane) Addition (4° C.), IPA: Water (1%)
